About 7,700 (2.3%) of roughly 330,000 compounds were called active. Inconclusive results, whose numbers are uncertain, are shown with a selection of clear calls. The call rests on the fitted dose curve; in most records, active means well fitted inhibition curve with a large enough effect; inconclusive means small, poorly fitted or top-dose-only effect, or effect the other way; inactive means flat fitted curve, though single readings scatter. Potencies of inconclusive entries are doubtful fits and often do not repeat.
Assay: qHTS screen for small molecules that inhibit ELG1-dependent DNA repair in human embryonic kidney (HEK293T) cells expressing luciferase-tagged ELG1; further: nearly all actives have a fitted effect of over 55% in size
Conditions: HEK293T ELG1-luciferase reporter, luminescence, 16 h, DNA damage induced by 5-fluorouridine; series mostly up to 46.1 µM
Summary of the method: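 Luminescence from the luciferase reporter, measured 30 min after ONE-Glo reagent at room temperature, was the read-out. Beforehand, 2,000 cells per well were exposed for 16 hr at 37 °C to 5-fluorouridine together with compound or vehicle.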
Potency means the concentration at half of the fitted maximal effect.

SMILES	Potency
CCc1ccccc1NC(=O)CN(C)C(=O)CSc1nnc(Nc2ccc(C)cc2)s1	inconclusive: 20.6 µM [inhibitor, partial curve]
CCOC(=O)c1nc(Nc2ccc(N3CCC(C)CC3)cc2)c2ccccc2n1	active: 5.8 µM
O=C(NCCS(=O)(=O)N1CCN(c2cccc(Cl)c2)CC1)C1CCCC1	inconclusive: 25.9 µM [inhibitor, partial curve, poor fit]
COc1ccc(OC)c(-c2cc(C(=O)Nc3ccc(F)cc3F)no2)c1	inconclusive: 20.6 µM [activator, single point]
CCOCN(C(=O)Cn1cnc2ccccc21)c1c(C)cccc1CC	inactive
COc1cccc(N2CCN(CC(=O)N3CCN(S(=O)(=O)c4ccc(Cl)cc4)CC3)CC2)c1	inconclusive: 5.8 µM [inhibitor, partial curve]
Oc1ccccc1Nc1nc(NCC2CCCO2)c2ccccc2n1 (stereo not drawn)	inconclusive: 23.1 µM [inhibitor, single point]
CC(=O)c1ccc(NC(=O)C(C)OC(=O)c2ccc(Br)o2)cc1 (stereo not drawn)	inactive
CC1S/C(=N/N=C/c2ccco2)N(Cc2ccc(F)cc2)C1=O (stereo not drawn)	inactive
Nc1ccc2ncccc2c1N	active: 10.3 µM
CCCSc1ncnc2c1oc1ccccc12	inconclusive: 18.4 µM [activator, single point]
CCN(CC)S(=O)(=O)c1cccc(NC(=O)c2ccc(SC)cc2OC)c1	inconclusive: 18.3 µM [inhibitor, single point]
CC(Nc1cccc2ccccc12)C(=O)N/N=C/c1ccccn1 (stereo not drawn)	inactive
CCc1ccc(NC(=O)NCc2cccnc2)cc1	inactive
COc1ccc(/C=c2/sc3n(c2=O)C(c2ccccc2OC)C2=C(N=3)c3ccccc3CC2)cc1O (stereo not drawn)	inconclusive: 20.6 µM [inhibitor, partial curve]
CN(C)c1ccnc2sc(C(N)=O)c(N)c12	active: 0.82 µM
C/C(=N\NC(=S)NCCc1ccccc1)c1ccc(Cl)cc1	inconclusive: 29.1 µM [inhibitor, single point]
CCn1c(C)c(C)c2cc(C(=O)N3CCCC3)ccc21	inactive
CCOc1ccc(CCNC(=O)c2nnn(CC(=O)Nc3ccc(OC)cc3)c2N)cc1OCC	inconclusive: 23.1 µM [activator, partial curve, poor fit]
Cc1noc(C)c1S(=O)(=O)Nc1ccc2c(c1)C(=O)N([C@H](C)CO)C[C@H](C)[C@@H](CN(C)C(=O)Nc1ccc3c(c1)OCO3)O2	inconclusive: 29.1 µM [inhibitor, single point]
Cc1cccc(C)c1OCC(=O)N/N=C/c1cccnc1	inactive
Cc1ccc(C(NC(=O)NCCCN2CCOCC2)=C(Cl)Cl)cc1F	inconclusive: 16.4 µM [inhibitor, partial curve]
C(=N\Nc1nc(N2CCCCC2)nc(N2CCCCC2)n1)/c1c[nH]c2ccccc12	inconclusive: 16.4 µM [inhibitor, partial curve, poor fit]

Some of the entries above, set out differently:
CC(=O)c1ccc(NC(=O)C(C)OC(=O)c2ccc(Br)o2)cc1 (stereo not drawn)
  Potency: inactive
CC1S/C(=N/N=C/c2ccco2)N(Cc2ccc(F)cc2)C1=O (stereo not drawn)
  Potency: inactive
Nc1ccc2ncccc2c1N
  Potency: active: 10.3 µM
CCCSc1ncnc2c1oc1ccccc12
  Potency: inconclusive: 18.4 µM [activator, single point]

The list continues:

SMILES	Potency
COc1ccc(CNC(=O)c2ccc(NC(=O)C3=CSCCO3)cc2)cc1	inconclusive: 14.6 µM [activator, partial curve, poor fit]
O=C(OCC(=O)N1CCCC1)c1c(Cl)cccc1Cl	inconclusive: 20.6 µM [activator, partial curve, poor fit]
O=C(Nc1ccc(N2CCOCC2)c(Cl)c1)c1cccc(F)c1	inconclusive: 0.651 µM [activator, partial curve]
Cc1nc2ncccn2c1-c1csc(Nc2ccccc2)n1	inconclusive: 4.11 µM [inhibitor, single point]
CC(C)CC(=O)N=C1SC2CS(=O)(=O)CC2N1Cc1ccccc1Cl (stereo not drawn)	inactive
CC[C@@H](C)[C@@H]1CN([C@@H](C)CN2CCC[C@H]2CN2C(N)=NC[C@H]2CC(C)C)C(=N)N1CCCC1CCCC1	inactive
Clc1ccc2oc(-c3ccccc3)nc2c1	inconclusive: 16.4 µM [activator, partial curve]
O=C(NCCC1=CCCCC1)C(=O)c1c[nH]c2ccccc12	inconclusive: 18.4 µM [activator, partial curve]
C=CCOC(=O)C1=C(C)NC(SCC(=O)Nc2nccs2)=C(C#N)C1c1cccs1 (stereo not drawn)	inconclusive: 14.6 µM [inhibitor, partial curve, poor fit]
O=C1CCC(C(=O)OCc2nnc(-c3ccccc3)o2)=NN1	inconclusive: 23.1 µM [activator, single point]
COC(=O)[C@]1(Cc2ccccc2)N[C@H](CN(C)C(C)=O)[C@@H]2C(=O)N(C)C(=O)[C@@H]21	inconclusive: 18.3 µM [activator, partial curve, poor fit]
COc1ccccc1C(CNc1ccc(S(=O)(=O)N2CCCC2)cc1[N+](=O)[O-])N(C)C (stereo not drawn)	active: 11.6 µM
Cc1nn(-c2ccccc2)c(Cl)c1/C=N/NC(=O)c1[nH]ncc1Br	inconclusive: 2.31 µM [activator, full curve]
Cc1ccc(C=Nc2ccccc2C(N)=O)cc1	inconclusive: 29.1 µM [activator, single point]
CSCCC(NC(=O)c1ccc([N+](=O)[O-])cc1Cl)C(=O)OCC(=O)NCC(F)(F)F (stereo not drawn)	inconclusive: 18.4 µM [activator, single point]
O=C(CN1CC[n+]2c(-c3cccs3)csc21)c1ccc(-c2ccccc2)cc1	inconclusive: 0.184 µM [inhibitor, single point]
COc1ccc(OC)c(NC(=O)COC(=O)CCCN=C2NS(=O)(=O)c3ccccc32)c1	inactive
O=C(N/N=C/c1ccco1)c1ccn[nH]1	inconclusive: 32.6 µM [activator, single point]
N#Cc1ccc(Oc2ccc(S(=O)(=O)N3CCOCC3)cn2)cc1	inactive
Cn1c(N)c(C(=O)COC(=O)c2cc(S(=O)(=O)N3CCOCC3)ccc2F)c(=O)n(C)c1=O	inconclusive: 25.9 µM [inhibitor, single point]
Cc1ccc(-c2nc(C=Nc3ccccc3)c(O)o2)cc1	inconclusive: 20.6 µM [activator, partial curve]
C=CCn1c(C)cc(C2=NNC(=NC(C)(C)C)SC2)c1C	inconclusive: 0.651 µM [activator, partial curve]
COc1ccc(NC(=S)NCCc2ccccc2)c(C)c1	inactive

Part of the list above, reformatted.
SMILES,Potency
Oc1ccccc1Nc1nc(NCC2CCCO2)c2ccccc2n1 (stereo not drawn),"inconclusive: 23.1 µM [inhibitor, single point]"
CC(=O)c1ccc(NC(=O)C(C)OC(=O)c2ccc(Br)o2)cc1 (stereo not drawn),inactive

Next part

SMILES	Potency
COc1cc(C(=O)NCCOc2cc(C)cc(C)c2)cc(OC)c1OC	inconclusive: 5.8 µM [inhibitor, partial curve]
COc1ccc(CC2(CO)CCN(Cc3cnc(-c4ccccc4C)nc3)CC2)cc1	inconclusive: 14.6 µM [inhibitor, partial curve]
COC(=O)c1ccccc1NS(=O)(=O)c1ccc2c(c1)oc(=O)n2C	inconclusive: 0.1 µM [inhibitor, full curve, poor fit]
Cc1nn(Cc2noc(C(=O)NCC3CCCO3)n2)c(C)c1Br (stereo not drawn)	inconclusive: 29.1 µM [activator, partial curve, poor fit]
Cc1ccc(NC(=O)CN2C(=O)NC(C)(c3ccccc3)C2=O)c(C)c1 (stereo not drawn)	inconclusive: 0.82 µM [inhibitor, partial curve, poor fit]
COC(=O)c1nc2ccc(C)cn2c1F	inconclusive: 20.6 µM [activator, partial curve]
COc1ccccc1C(=O)NCC(C)(C)CN=C1NS(=O)(=O)c2ccccc21	inconclusive: 18.3 µM [inhibitor, partial curve, poor fit]
COc1cc2c(cc1OC)C1(Nc3c-2c(-c2ccccc2)nn3-c2ccccc2)C(=O)Nc2ccccc21 (stereo not drawn)	inconclusive: 29.1 µM [inhibitor, single point]
Cc1ccccc1-c1noc(C2CCCCC2)n1	inconclusive: 20.6 µM [activator, single point]
COc1ccc(NC(=O)CSc2nncs2)cc1S(N)(=O)=O	inconclusive: 14.6 µM [activator, partial curve, poor fit]
CC(C)c1cc(=O)n2[nH]c(SCc3ccccc3Cl)nc2n1	inconclusive: 18.3 µM [inhibitor, single point]
Cc1ccccc1CN1CCC(n2nccc2NC(=O)c2ccc3c(c2)OCO3)CC1	inconclusive: 13 µM [activator, partial curve]
CCc1ccc(OCC2c3cc(OC)c(OC)cc3CCN2C(=S)NCCOC)cc1 (stereo not drawn)	active: 23.1 µM
CNC(=S)N(CCO)Cc1cc2cc3c(cc2[nH]c1=O)OCCO3	inactive
O=C(C[n+]1ccc(/C=C/c2ccccc2)cc1)c1ccc2c(c1)OCCO2	inconclusive: 23.1 µM [inhibitor, partial curve]
OC1(CNCc2cn[nH]c2-c2cc3ccccc3o2)CCCCC1	inconclusive: 3.26 µM [activator, partial curve, poor fit]
CSc1ccc(S(=O)(=O)NCC(=O)OCC(=O)NCc2cccs2)cc1[N+](=O)[O-]	inactive
O=C(N/N=C/c1cc(Br)cs1)c1c[nH]c2ccccc12	inactive
NC(N)=NC1=NC(=O)C(Cc2ccccc2)S1 (stereo not drawn)	inconclusive: 25.9 µM [activator, partial curve]
O=C(CSc1ccc(-c2ccco2)nn1)NCc1ccc(F)cc1	inactive
CC(=O)c1c(C)[nH]c(C(=O)NCCc2c[nH]c3ccccc23)c1C	inconclusive: 25.9 µM [activator, single point]
CCOC(=O)CNc1nc(Cl)nc(Nc2ccccc2)n1	inconclusive: 29.1 µM [activator, single point]

— PubChem BioAssay AID504467 (National Center for Advancing Translational Sciences (NCATS), 2011)
